Publication PMC8902634
No constants are given. Whether binding was seen depends on the method and setting. In cells and extracts the contact can be indirect. Some results given as binding are weak or reduced against the parent protein; the word gives no strength.

Protein sequences, listed by entry. Tags and fused reporters are not part of them.
UniProt Q969H0: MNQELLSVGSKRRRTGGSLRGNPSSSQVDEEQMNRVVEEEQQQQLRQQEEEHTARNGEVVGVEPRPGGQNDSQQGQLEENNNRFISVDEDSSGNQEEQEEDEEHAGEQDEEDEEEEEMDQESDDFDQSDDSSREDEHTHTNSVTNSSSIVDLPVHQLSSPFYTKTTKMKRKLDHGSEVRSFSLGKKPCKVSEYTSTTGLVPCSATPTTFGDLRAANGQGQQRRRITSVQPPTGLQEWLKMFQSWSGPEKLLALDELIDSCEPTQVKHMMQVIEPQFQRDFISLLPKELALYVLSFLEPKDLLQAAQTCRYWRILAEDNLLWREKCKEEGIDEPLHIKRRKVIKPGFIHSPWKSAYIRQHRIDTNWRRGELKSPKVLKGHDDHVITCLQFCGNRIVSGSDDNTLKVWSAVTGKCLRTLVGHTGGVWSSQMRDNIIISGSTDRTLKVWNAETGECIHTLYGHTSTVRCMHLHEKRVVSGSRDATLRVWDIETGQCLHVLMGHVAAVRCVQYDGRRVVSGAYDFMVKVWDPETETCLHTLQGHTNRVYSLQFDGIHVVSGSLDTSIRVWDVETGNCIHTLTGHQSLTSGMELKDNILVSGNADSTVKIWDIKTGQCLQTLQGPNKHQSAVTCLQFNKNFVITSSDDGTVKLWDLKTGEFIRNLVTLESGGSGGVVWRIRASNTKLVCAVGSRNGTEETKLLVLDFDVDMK

Biological target: T1, Biglycan (human) (UniProt P21810)
T1 sequence: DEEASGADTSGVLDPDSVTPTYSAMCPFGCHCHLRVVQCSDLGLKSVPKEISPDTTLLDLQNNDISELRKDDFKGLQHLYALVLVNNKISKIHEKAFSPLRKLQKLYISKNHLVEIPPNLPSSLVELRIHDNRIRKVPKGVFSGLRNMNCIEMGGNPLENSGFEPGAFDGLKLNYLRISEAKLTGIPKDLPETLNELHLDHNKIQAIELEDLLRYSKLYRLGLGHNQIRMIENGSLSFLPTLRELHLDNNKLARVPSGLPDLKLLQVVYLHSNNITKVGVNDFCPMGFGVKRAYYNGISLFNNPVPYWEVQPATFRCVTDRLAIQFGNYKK
Assay: co-IP; HGC-27 cell lysate (co-IP kit, ice-cold lysis buffer); immunoprecipitates of BGN and input (20%) separated by SDS-PAGE, Western blotting

Substance: F-box and WD repeat domain-containing 7 (from UniProt Q969H0 1-707)
- binding: binds
